Reference: the supplement of paper PMC3334620
In all, about 33,000 sequences were measured (“E-score (-0.5 to 0.5)”: median about -8e-05, highest 2% from about 0.23 on). This is one part of the list.

The sequences below were run against T1, Nrg2 (UniProt P38082) (assay: PBM E-score (8-mer binding enrichment) (E-score (-0.5 to 0.5)); higher = stronger / more preferred TF binding). Details: protein concentration: 100 nM; construct: GST-full length.
T1 sequence: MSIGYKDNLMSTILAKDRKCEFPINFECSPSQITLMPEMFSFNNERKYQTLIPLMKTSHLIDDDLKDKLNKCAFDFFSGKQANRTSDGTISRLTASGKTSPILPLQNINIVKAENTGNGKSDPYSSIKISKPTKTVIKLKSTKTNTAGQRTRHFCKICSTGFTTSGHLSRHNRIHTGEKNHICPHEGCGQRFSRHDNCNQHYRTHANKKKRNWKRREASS
Method: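 Universal 'all 10-mer' protein binding microarrays (Agilent AMADID 015681) probed with GST-tagged S. cerevisiae TFs (full-length or DBD) made by in vitro transcription/translation (PURExpress), about 100-200 nM. Bound TF was detected with fluorescent anti-GST. Each ungapped 8-mer (which stands for itself and its reverse complement) is scored by the PBM enrichment score (E-score), a modified Wilcoxon-Mann-Whitney statistic from -0.5 to +0.5, computed with the Universal PBM Analysis Suite. Scale: above 0.35 generally sequence-specific binding.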
GCCTGGAC was tested, and the “PBM E-score” value was -0.0686.
For AGGTCGCG, the “PBM E-score” value was -0.0425.
With CGAGAGGC the “PBM E-score” value was -0.167.
With ACCTACCA the “PBM E-score” value was -0.0595.
With AAATACTC the “PBM E-score” value was -0.0877.
GCGTCTAA was tested, and the “PBM E-score” value was -0.0759.
ATGGCGGG was tested, and the “PBM E-score” value was 0.00045.
With CGCTAGAA the “PBM E-score” value was -0.0308.
For CGGCAGCA, the “PBM E-score” value was -0.087.
For GCGCTTAA, the “PBM E-score” value was 0.11.
CGACTTCC was tested, and the “PBM E-score” value was -0.172.
With TCGTGGCA the “PBM E-score” value was 0.0984.
For GGAGTCAC, the “PBM E-score” value was -0.192.
With GCCTTTCA the “PBM E-score” value was 0.00577.
ATGGCAGG was tested, and the “PBM E-score” value was 0.12.
GTCCGCAA was tested, and the “PBM E-score” value was 0.00224.
For AGACAAGG, the “PBM E-score” value was -0.194.
With ACTATGAA the “PBM E-score” value was 0.109.
With ATGGGCGA the “PBM E-score” value was -0.111.
In the case of CGCAGCTC, the “PBM E-score” value is reported as -0.00261.
CCTATTGC was tested, and the “PBM E-score” value was -0.0736.
AAATACCT was tested, and the “PBM E-score” value was 0.191.
In the case of GCATGGGA, the “PBM E-score” value is reported as -0.0572.
For AAATTCTC, the “PBM E-score” value was -0.0106.
For GATCCCAA, the “PBM E-score” value was 0.0162.
In the case of CGACCTGA, the “PBM E-score” value is reported as 0.0565.
For GCTGTATA, the “PBM E-score” value was 0.00165.
With ACACTGGA the “PBM E-score” value was 0.207.
AACGCCGT was tested, and the “PBM E-score” value was -0.0556.
With AATCAGCG the “PBM E-score” value was 0.224.
With GACATACA the “PBM E-score” value was 0.246.
In the case of ACTAACTG, the “PBM E-score” value is reported as 0.111.
With GCCAGAGA the “PBM E-score” value was -0.129.
For CATGAGGG, the “PBM E-score” value was 0.0287.
GTAGAGGA was tested, and the “PBM E-score” value was -0.252.
CATTTGTC was tested, and the “PBM E-score” value was -0.00312.
For CATACTGA, the “PBM E-score” value was 0.135.
For ACCCTCGG, the “PBM E-score” value was -0.0827.
In the case of ATAACTTC, the “PBM E-score” value is reported as 0.124.
For GCCACTGA, the “PBM E-score” value was -0.0644.
With CCCTTGAG the “PBM E-score” value was 0.199.
In the case of GAAGGTTA, the “PBM E-score” value is reported as -0.0296.
With AAGGAGGA the “PBM E-score” value was -0.283.
With CCATAACG the “PBM E-score” value was 0.0769.
With GGAAAATA the “PBM E-score” value was 0.127.
For GAGCCTGA, the “PBM E-score” value was -0.232.
In the case of AACGTCTA, the “PBM E-score” value is reported as -0.0654.
In the case of AAGCGCTG, the “PBM E-score” value is reported as 0.06.
CTCAAGGA was tested, and the “PBM E-score” value was 0.068.
AAGACCTC was tested, and the “PBM E-score” value was -0.262.
With ACCCATAG the “PBM E-score” value was -0.0908.
TCAGCCGA was tested, and the “PBM E-score” value was -0.0551.
With CTGTTACA the “PBM E-score” value was 0.0698.
For CCTCGCTA, the “PBM E-score” value was -0.234.
For GCAGGACA, the “PBM E-score” value was 0.0152.
In the case of AAATAAGA, the “PBM E-score” value is reported as 0.0747.
ACCCGTTA was tested, and the “PBM E-score” value was 0.0912.
With ATATAAGA the “PBM E-score” value was 0.157.
For CCGCTCGC, the “PBM E-score” value was -0.0913.
CGTTTGCA was tested, and the “PBM E-score” value was 0.169.
CAATGCTA was tested, and the “PBM E-score” value was -0.0203.
In the case of CTGTCGAA, the “PBM E-score” value is reported as -0.0413.
For AGGCCAAA, the “PBM E-score” value was 0.126.
CAAGGAAC was tested, and the “PBM E-score” value was 0.0725.
For AAAGCAAG, the “PBM E-score” value was 0.226.
In the case of GCTTAAGA, the “PBM E-score” value is reported as -0.1.
AAGATTCG was tested, and the “PBM E-score” value was 0.181.
With AGTGATAA the “PBM E-score” value was -0.128.
AGCTAACG was tested, and the “PBM E-score” value was -0.0986.
For TCAGGCAA, the “PBM E-score” value was -0.0502.
For ATGCAGAC, the “PBM E-score” value was 0.0103.
For CCCATGAA, the “PBM E-score” value was 0.05.
CGGAGCTC was tested, and the “PBM E-score” value was -0.18.
CTTCCAAA was tested, and the “PBM E-score” value was -0.0408.
For GGACATAC, the “PBM E-score” value was 0.165.
In the case of ACTTAGAT, the “PBM E-score” value is reported as 0.134.
With CCTTTTAC the “PBM E-score” value was 0.0855.
For AACAAATG, the “PBM E-score” value was 0.0558.
In the case of CGTGCATC, the “PBM E-score” value is reported as -0.0219.
For ACTGCCGC, the “PBM E-score” value was 0.143.
For AGTAAAAC, the “PBM E-score” value was -0.108.
In the case of ATCGTAAG, the “PBM E-score” value is reported as 0.00567.
In the case of CCCGCGAA, the “PBM E-score” value is reported as 0.222.
For GAAGATCC, the “PBM E-score” value was -0.17.
AACGTTTG was tested, and the “PBM E-score” value was -0.043.
CAGCTAGA was tested, and the “PBM E-score” value was -0.0377.
GTGCTCTA was tested, and the “PBM E-score” value was -0.0218.
For AGATAACA, the “PBM E-score” value was 0.202.
With CATAGAAC the “PBM E-score” value was 0.0704.
In the case of CCGATACA, the “PBM E-score” value is reported as 0.0316.
With CCCTCTGC the “PBM E-score” value was -0.344.
In the case of ATGCTGCG, the “PBM E-score” value is reported as -0.0771.
For CTCAAACC, the “PBM E-score” value was 0.077.
In the case of AATGGCGG, the “PBM E-score” value is reported as 0.0103.
AATCGGTC was tested, and the “PBM E-score” value was -0.00023.
For GTACAGAC, the “PBM E-score” value was -0.174.
In the case of ACTAGTTG, the “PBM E-score” value is reported as 0.0727.
For CGAGGGAG, the “PBM E-score” value was -0.151.
For CCATCTTA, the “PBM E-score” value was -0.00841.
For CACAGTAG, the “PBM E-score” value was 0.14.
With AGTCTGCA the “PBM E-score” value was -0.202.
CAGCAGCA was tested, and the “PBM E-score” value was -0.0767.
For ATCATATG, the “PBM E-score” value was 0.0803.
AAGTCTGG was tested, and the “PBM E-score” value was -0.151.
GACTCGCA was tested, and the “PBM E-score” value was -0.0592.
In the case of GATAACGA, the “PBM E-score” value is reported as 0.0109.
In the case of ATCCATCG, the “PBM E-score” value is reported as -0.0274.
With ATGTAGAG the “PBM E-score” value was -0.102.
For CAAAATTG, the “PBM E-score” value was 0.0809.
For CACAATGA, the “PBM E-score” value was 0.115.
For CCCTCTAG, the “PBM E-score” value was -0.23.
For AGTCGGGA, the “PBM E-score” value was -0.164.
In the case of AACCCGGC, the “PBM E-score” value is reported as -0.134.
GACTGCGC was tested, and the “PBM E-score” value was -0.0716.
With TAGGGGCA the “PBM E-score” value was 0.0207.
For CATACTCA, the “PBM E-score” value was -0.00405.
With GCTCTTCA the “PBM E-score” value was -0.086.
In the case of CGGATGAA, the “PBM E-score” value is reported as 0.199.
With CTTTAAAC the “PBM E-score” value was -0.065.
In the case of CGCCACAC, the “PBM E-score” value is reported as -0.00344.
For ACCTCGTA, the “PBM E-score” value was 0.0407.
In the case of ATAAAACA, the “PBM E-score” value is reported as -0.0258.
CCATAGCA was tested, and the “PBM E-score” value was -0.00563.
In the case of ACAGTAAC, the “PBM E-score” value is reported as 0.0682.
In the case of CCCCTAGC, the “PBM E-score” value is reported as -0.151.
In the case of GGCACGCA, the “PBM E-score” value is reported as -0.133.
With CACTGCTA the “PBM E-score” value was 0.0106.
For ACGCGGGG, the “PBM E-score” value was 0.221.
For CGTCCGAG, the “PBM E-score” value was 0.0587.
In the case of AACTAGTG, the “PBM E-score” value is reported as 0.0803.
In the case of AGACCTAG, the “PBM E-score” value is reported as -0.0422.
AGTCGGGG was tested, and the “PBM E-score” value was -0.179.
For CAATCCTA, the “PBM E-score” value was -0.0876.
With ATAGGCGA the “PBM E-score” value was 0.0499.
GGCTGACC was tested, and the “PBM E-score” value was -0.207.
CGTTAGTA was tested, and the “PBM E-score” value was 0.0257.
In the case of CGGTCTAC, the “PBM E-score” value is reported as -0.0553.
With AACAATCG the “PBM E-score” value was -0.0412.
In the case of GATAACCA, the “PBM E-score” value is reported as 0.175.
In the case of TCGGAGAA, the “PBM E-score” value is reported as -0.0962.
CCTTAAGC was tested, and the “PBM E-score” value was -0.0539.
In the case of ACTGGGGC, the “PBM E-score” value is reported as 0.0524.
In the case of CGACGAGC, the “PBM E-score” value is reported as 0.0201.
TCGAGCAA was tested, and the “PBM E-score” value was 0.183.
With AGGACATG the “PBM E-score” value was -0.0709.
In the case of CGGACTTA, the “PBM E-score” value is reported as -0.245.
GCAGGCGA was tested, and the “PBM E-score” value was -0.0348.
In the case of GACAGGTC, the “PBM E-score” value is reported as -0.146.
For TAAATAAA, the “PBM E-score” value was 0.086.
For CAGCGTTA, the “PBM E-score” value was -0.0615.
In the case of ACTAAGTA, the “PBM E-score” value is reported as 0.0864.
AGGTATGC was tested, and the “PBM E-score” value was 0.06.
With CCGGCCAC the “PBM E-score” value was -0.118.
In the case of AAGGGCGC, the “PBM E-score” value is reported as 0.126.
With CATCTACC the “PBM E-score” value was 0.0527.
With AACACGGA the “PBM E-score” value was 0.0856.
ATAGTGCG was tested, and the “PBM E-score” value was 0.129.
For CAAAAATG, the “PBM E-score” value was 0.0482.
In the case of AAAGGTTG, the “PBM E-score” value is reported as -0.174.
In the case of CCTGACGC, the “PBM E-score” value is reported as -0.159.
For AGGACAGG, the “PBM E-score” value was -0.0875.
In the case of CTATTTGA, the “PBM E-score” value is reported as 0.098.
AACTAGGA was tested, and the “PBM E-score” value was -0.0947.
For CCCACCCA, the “PBM E-score” value was 0.0597.
With TAATGTCA the “PBM E-score” value was 0.0244.
In the case of GAAGATAC, the “PBM E-score” value is reported as 0.00975.
For AGTATTAT, the “PBM E-score” value was 0.00126.
In the case of GCTAGGCC, the “PBM E-score” value is reported as -0.00927.
With AACTATGG the “PBM E-score” value was -0.144.
AGAACTTC was tested, and the “PBM E-score” value was -0.116.
In the case of ACCAGAGA, the “PBM E-score” value is reported as 0.118.
With CAGCTGGA the “PBM E-score” value was 0.123.
